PubChem BioAssay AID686943 – Drosophila RNAi Screening Center | 2013
The deposit covers about 23,000 reagents; this is an unselected part of those with a known target gene and a result. 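Extra replicates exist only for a retested subset of genes; insulin dose and duration not given; both raised and lowered dpERK matter.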 Reagents against one gene are numbered here. A plus sign joins genes that one reagent is predicted to hit. Not all columns of the deposit are shown. Reagent sequences are not shown. Not given: the amount of reagent, the time to read-out.

Screen: 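Fly genes whose loss alters ERK activation after insulin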 (primary screen)
System: Drosophila S2R+ haemocyte-like cells expressing YFP-tagged ERK (Rolled)
Knock-down reagent: long dsRNA against Drosophila genes
Challenge: insulin stimulation versus unstimulated cells; dose and duration not given
Detection: 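Antibody staining for doubly phosphorylated ERK divided by ERK-YFP signal, as plate z-scores, in insulin-treated and untreated cells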
Scale: replicate 1, z-score of dpERK with insulin: higher = more active ERK per ERK-YFP after insulin

target gene,reagent,"replicate 1, z-score of dpERK with insulin"
mRpS18C,1,-0.61
Mtk,1,0.52
Arl1,1,0.52
Dim1,1,1.86
Cnx99A + Cnx14D,1,-0.55
RpS5a,1,-0.5
nmdyn-D6,1,0.43
CG13708,1,0.43

Part of the list above, set out differently:
RpS5a: replicate 1, z-score of dpERK with insulin = -0.5
nmdyn-D6: replicate 1, z-score of dpERK with insulin = 0.43
CG13708: replicate 1, z-score of dpERK with insulin = 0.43

More results:
target gene,reagent,"replicate 1, z-score of dpERK with insulin"
CG30495,1,0.06
CG42335,1,0.8
CG42335,2,0.56
CG7384,1,0.18
CG4362,1,0.1
CG33299,1,0.29
CG5823,1,0.51
fd3F,1,-3.45
5-HT2B,1,0.85
5-HT2B,2,1.25
Sbat,1,-0.41
CG15930,1,0.22
CG4666,1,-0.23
su(sable),1,-0.67
cno,1,-1.25
cno,2,-1.45
